Measured values as given in PMC12700551.
Results are given in words; binding and its absence hold for the method and conditions named. Binding seen in cells or lysates may run through a third protein. Some binding calls cover weakened binding; strength is not graded here.

The chains behind the UniProt entries cited, without tags or fusion partners. Residues count along the entry.
UniProt P70302, residues 23-685: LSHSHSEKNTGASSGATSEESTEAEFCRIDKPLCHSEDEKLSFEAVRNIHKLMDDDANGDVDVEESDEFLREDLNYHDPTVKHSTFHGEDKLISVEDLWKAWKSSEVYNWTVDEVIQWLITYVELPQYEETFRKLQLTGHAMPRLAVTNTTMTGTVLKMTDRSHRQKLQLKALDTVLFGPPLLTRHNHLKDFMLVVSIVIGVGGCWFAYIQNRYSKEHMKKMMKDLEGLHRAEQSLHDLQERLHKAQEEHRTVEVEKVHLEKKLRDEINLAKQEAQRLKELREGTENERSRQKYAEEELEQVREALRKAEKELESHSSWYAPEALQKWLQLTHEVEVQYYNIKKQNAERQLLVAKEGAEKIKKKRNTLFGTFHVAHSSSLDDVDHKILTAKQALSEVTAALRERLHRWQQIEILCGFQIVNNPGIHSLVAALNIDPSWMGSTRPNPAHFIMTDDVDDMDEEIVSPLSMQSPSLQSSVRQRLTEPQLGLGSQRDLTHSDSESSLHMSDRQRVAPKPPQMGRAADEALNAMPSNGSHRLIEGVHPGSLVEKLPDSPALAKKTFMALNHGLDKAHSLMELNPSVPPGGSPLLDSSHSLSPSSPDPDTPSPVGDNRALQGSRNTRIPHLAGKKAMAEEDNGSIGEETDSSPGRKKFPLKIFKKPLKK
UniProt Q13586, residues 23-685: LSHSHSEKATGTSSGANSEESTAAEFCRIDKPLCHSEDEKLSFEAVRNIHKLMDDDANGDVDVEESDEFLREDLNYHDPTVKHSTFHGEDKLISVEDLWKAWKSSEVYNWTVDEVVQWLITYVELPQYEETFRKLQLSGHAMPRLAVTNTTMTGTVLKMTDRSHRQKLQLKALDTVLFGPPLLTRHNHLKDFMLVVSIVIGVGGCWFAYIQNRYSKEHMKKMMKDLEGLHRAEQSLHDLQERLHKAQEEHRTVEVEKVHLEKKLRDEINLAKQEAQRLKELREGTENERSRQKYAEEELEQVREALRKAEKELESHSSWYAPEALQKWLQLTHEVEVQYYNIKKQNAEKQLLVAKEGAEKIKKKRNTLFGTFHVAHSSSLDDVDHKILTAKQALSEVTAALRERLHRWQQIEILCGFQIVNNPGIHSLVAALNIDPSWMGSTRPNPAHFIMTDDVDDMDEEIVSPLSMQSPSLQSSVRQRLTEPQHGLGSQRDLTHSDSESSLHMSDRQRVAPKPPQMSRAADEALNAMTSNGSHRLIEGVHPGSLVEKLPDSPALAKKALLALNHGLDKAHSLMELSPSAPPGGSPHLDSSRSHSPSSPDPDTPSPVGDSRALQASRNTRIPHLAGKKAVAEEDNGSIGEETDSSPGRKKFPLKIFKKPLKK

B1: acid-sensing ion channel 3 (ASIC3) (protein, UniProt Q6X1Y6 1-530)
chain: MKPPSGLEEAQRRQASDIRVFANSCTMHGLGHIFGPGGLTLRRGLWATAVLLSLAAFLYQVAERVRYYGEFHHKTTLDERESHQLTFPAVTLCNINPLRRSRLTPNDLHWAGTALLGLDPAEHAAYLRALGQPPAPPGFMPSPTFDMAQLYARAGHSLEDMLLDCRYRGQPCGPENFTVIFTRMGQCYTFNSGAQGAELLTTPKGGAGNGLEIMLDVQQEEYLPIWKDMEETPFEVGIRVQIHGQEEPPAIDQLGFGAAPGHQTFVSCQQQQLSFLPPPWGDCNTASVDPDFDPEPSDPLGSPSSSPPYSLIGCRLACESRYVARKCGCRMMHMPGNSPVCSPQQYKDCASPALDAMLRKDTCVCPNPCATTRYAKELSMVRIPSRASARYLARKYNRSETYITENVLVLDIFFEALNYEAVEQKAAYEVSELLGDIGGQMGLFIGASLLTILEILDYLCEVFQDRVLGYFWNRRSSQRRSGNTLLQEELNGHRTHVPHLSLGPRPPTAPSAVTKTLAASHRTCYLVTRL
B2: ASIC3 in human AML cell lines (protein, UniProt Q9UHC3 1-531)
chain: MKPTSGPEEARRPASDIRVFASNCSMHGLGHVFGPGSLSLRRGMWAAAVVLSVATFLYQVAERVRYYREFHHQTALDERESHRLIFPAVTLCNINPLRRSRLTPNDLHWAGSALLGLDPAEHAAFLRALGRPPAPPGFMPSPTFDMAQLYARAGHSLDDMLLDCRFRGQPCGPENFTTIFTRMGKCYTFNSGADGAELLTTTRGGMGNGLDIMLDVQQEEYLPVWRDNEETPFEVGIRVQIHSQEEPPIIDQLGLGVSPGYQTFVSCQQQQLSFLPPPWGDCSSASLNPNYEPEPSDPLGSPSPSPSPPYTLMGCRLACETRYVARKCGCRMVYMPGDVPVCSPQQYKNCAHPAIDAMLRKDSCACPNPCASTRYAKELSMVRIPSRAAARFLARKLNRSEAYIAENVLALDIFFEALNYETVEQKKAYEMSELLGDIGGQMGLFIGASLLTILEILDYLCEVFRDKVLGYFWNRQHSQRHSSTNLLQEGLGSHRTQVPHLSLGPRPPTPPCAVTKTLSASHRTCYLVTQL

What was measured:
STIM1 = STIM1 (UniProt P70302); assay: co-IP; co-immunoprecipitation of ASIC3 (whole, N-terminal, C-terminal) with STIM1; cells, tags and bait not stated in the main text (Supplemental Figure 8, A and B)
[1] = biological target: STIM1 in human AML cell lines (human (in THP-1, U937 and MOLM-13 cells)) (UniProt Q13586); assay: co-IP; co-immunoprecipitation in THP-1, U937 and MOLM-13 cells (Supplemental Figure 11A); bait not stated

Binder | binding (STIM1) | binding [1]
B1 | binds | –
B2 | – | binds
